Results are given in words; binding and its absence hold for the method and conditions named. In cells and extracts the contact can be indirect.
Molecular target: human telomerase reverse transcriptase (human (endogenous in Cal27)) (UniProt O14746)
Experiment: co-IP; endogenous proteins; whole cell lysate of Cal27 cells (1 mg total protein, IP lysis buffer, precleared) incubated with 2 ug anti-hTERT antibody or IgG control at 4 C, Protein G Plus/Protein A-agarose beads overnight; immunoblot for p-AKT, p-ERK and p53

Sequences of proteins named here, by UniProt entry; tags and fusion partners are left off.
UniProt O14746: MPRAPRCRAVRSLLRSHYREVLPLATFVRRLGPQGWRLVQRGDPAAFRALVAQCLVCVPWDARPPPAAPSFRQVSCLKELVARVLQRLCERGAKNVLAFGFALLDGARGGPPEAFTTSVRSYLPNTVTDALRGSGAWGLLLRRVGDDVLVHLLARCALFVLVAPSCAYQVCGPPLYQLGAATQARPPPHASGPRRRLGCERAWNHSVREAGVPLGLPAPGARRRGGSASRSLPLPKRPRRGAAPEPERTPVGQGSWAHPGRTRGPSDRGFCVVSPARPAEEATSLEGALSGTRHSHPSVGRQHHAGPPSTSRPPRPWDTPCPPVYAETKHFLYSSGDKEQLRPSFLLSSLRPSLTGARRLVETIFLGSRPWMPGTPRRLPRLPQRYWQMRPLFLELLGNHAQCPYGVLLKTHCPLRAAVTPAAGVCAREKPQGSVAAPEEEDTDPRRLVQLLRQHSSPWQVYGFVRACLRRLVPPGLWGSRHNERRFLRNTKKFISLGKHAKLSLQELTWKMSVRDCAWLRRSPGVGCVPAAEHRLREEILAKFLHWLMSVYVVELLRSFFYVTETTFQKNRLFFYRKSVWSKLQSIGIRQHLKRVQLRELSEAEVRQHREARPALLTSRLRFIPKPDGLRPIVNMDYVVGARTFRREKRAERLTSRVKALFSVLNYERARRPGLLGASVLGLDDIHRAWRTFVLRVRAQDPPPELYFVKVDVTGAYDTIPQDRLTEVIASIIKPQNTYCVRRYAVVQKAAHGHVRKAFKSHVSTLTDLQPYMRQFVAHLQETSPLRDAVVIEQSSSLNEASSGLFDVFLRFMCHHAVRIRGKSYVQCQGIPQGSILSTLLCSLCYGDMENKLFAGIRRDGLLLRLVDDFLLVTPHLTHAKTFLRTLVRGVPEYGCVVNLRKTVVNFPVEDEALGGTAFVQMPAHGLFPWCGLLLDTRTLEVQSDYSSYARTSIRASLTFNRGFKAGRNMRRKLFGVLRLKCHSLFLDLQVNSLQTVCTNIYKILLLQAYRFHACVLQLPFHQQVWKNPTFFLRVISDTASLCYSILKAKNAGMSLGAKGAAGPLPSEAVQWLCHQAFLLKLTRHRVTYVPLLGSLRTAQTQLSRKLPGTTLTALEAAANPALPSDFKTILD

- binding: no binding
Substance: p53 (from UniProt P04637 1-393)

Source: paper PMC4742150
